Test results as given in patent US20040106134A1 (Regeneron, published 2004).
Results are given in words; binding and its absence hold for the method and conditions named. In cells and extracts the contact can be indirect. Some results given as binding are weak or reduced against the parent protein; the word gives no strength. Sequences can lack the tags named with a protein.

What was measured:
human BMP-2 (human) = target: T1, human BMP-2 (human) (UniProt P12643); assay: co-immunoprecipitation with anti-myc 9E10 beads, western blot for BMP-2
T1 sequence (looked up): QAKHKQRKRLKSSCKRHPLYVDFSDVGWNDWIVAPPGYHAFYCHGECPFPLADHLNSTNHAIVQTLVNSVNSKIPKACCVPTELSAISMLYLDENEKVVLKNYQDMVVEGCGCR

human BMP-4 (human) = target: T2, human BMP-4 (human) (UniProt P12644); assay: co-immunoprecipitation with anti-myc 9E10 beads, western blot for BMP-4
T2 sequence (looked up): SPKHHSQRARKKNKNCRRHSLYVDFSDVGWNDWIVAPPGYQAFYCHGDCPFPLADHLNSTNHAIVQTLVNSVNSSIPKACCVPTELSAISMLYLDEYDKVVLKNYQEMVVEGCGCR

B1: human DCR5-myc3 (other)
chain: RKNRPAGAIPSPYKDGSSNNSERWQHQIKEVLASSQEALVVTERKYLKSDWCKTQPLRQTVSEEGCRSRTILNRFCYGQCNSFYIPRHVKKEEESFQSCAFCKPQRVTSVLVELECPGLDPPFRLKKIQKVKQCRCMSVNLSDSDKQTGEQKLISEEDLGGEQKLISEEDLGGEQKLISEEDLGP
notes: Used as serum-free conditioned medium of transiently transfected COS7 cells; also called Human DCR5-myc3 protein; hDCR-5
For B1, the binding (human BMP-2 (human)) was “binds” and the binding (human BMP-4 (human)) was “binds”.
